The other results are listed elsewhere or left out. Residues, ends and D or L forms follow the SMILES beside them. *: point of attachment. Cbz = O=C(OCc1ccccc1)*
Experiments:
Experiment in all cases: log2 fold change, soluble protein after heating vs DMSO (PISA); higher = thermal stabilisation; K562 cells, 10 uM, 30 min; active = over 0.2 and 3.5 SD of the protein, either way, in both replicates (recomputed)
erlotinib = compound: C#Cc1cccc(Nc2ncnc3cc(OCCOC)c(OCCOC)cc23)c1 [erlotinib]
Outline: (§1)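 Soluble protein was quantified by TMTpro 16plex LC-MS/MS after channel sums were equalised. It was obtained as the supernatant after 21,000xg for 90 min from pooled aliquots of K562 cells (2×10^6 cells/mL, 10 μM compound, 30 min) heated for 3 min across 48°C-58°C and extracted in PBS with 0.5% NP-40 at 4°C. Thermal stability values are relative to control samples and come from duplicates. They are given as log2 fold changes.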

Chains of the proteins cited; added tags and fusions are not shown. Lines headed by an entry give the natural chain unless they say otherwise; changes in a name come on top.
UniProt P02774: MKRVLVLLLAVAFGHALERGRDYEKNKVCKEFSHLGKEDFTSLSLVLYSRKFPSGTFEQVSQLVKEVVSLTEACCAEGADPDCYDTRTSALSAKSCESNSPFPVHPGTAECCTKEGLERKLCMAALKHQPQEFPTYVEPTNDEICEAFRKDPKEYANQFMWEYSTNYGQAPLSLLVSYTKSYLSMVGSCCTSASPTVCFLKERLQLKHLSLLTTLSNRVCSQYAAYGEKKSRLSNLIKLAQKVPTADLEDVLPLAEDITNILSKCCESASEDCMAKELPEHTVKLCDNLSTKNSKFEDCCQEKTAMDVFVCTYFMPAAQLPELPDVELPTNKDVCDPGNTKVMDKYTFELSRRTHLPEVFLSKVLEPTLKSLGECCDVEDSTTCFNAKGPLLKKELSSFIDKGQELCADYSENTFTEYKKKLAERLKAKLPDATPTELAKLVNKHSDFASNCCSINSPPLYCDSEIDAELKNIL
UniProt P38435: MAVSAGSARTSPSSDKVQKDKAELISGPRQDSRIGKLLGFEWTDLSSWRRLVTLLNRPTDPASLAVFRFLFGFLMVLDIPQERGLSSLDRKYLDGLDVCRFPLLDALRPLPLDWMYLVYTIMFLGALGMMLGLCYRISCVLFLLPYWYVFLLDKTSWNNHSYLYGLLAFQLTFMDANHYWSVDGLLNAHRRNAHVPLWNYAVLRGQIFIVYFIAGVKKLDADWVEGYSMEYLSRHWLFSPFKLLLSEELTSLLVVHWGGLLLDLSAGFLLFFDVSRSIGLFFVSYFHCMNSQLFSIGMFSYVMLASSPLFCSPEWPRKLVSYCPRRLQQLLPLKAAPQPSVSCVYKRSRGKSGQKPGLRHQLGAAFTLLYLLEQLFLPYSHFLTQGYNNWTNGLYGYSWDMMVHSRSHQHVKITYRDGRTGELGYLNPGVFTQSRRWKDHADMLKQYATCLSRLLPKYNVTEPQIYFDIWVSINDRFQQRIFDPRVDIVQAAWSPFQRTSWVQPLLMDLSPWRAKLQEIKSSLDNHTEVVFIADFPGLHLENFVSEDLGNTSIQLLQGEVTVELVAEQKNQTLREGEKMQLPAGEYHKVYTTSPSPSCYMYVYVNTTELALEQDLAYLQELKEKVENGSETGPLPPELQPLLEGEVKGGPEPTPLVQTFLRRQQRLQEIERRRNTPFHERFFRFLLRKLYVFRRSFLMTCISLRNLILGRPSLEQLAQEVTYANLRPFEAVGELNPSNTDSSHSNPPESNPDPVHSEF
UniProt P50395: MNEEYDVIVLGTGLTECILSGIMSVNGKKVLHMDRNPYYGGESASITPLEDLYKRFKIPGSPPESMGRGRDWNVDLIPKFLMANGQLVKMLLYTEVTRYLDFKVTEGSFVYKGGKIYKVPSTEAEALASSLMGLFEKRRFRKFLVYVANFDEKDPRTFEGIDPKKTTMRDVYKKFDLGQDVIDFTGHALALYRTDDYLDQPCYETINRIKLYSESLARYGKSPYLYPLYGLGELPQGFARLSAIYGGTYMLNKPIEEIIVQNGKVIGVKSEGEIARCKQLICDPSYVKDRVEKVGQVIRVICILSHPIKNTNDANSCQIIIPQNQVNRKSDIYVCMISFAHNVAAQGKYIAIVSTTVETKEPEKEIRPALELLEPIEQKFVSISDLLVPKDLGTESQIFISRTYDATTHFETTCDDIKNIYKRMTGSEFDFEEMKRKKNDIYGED
UniProt P11413, whole entry, looked up: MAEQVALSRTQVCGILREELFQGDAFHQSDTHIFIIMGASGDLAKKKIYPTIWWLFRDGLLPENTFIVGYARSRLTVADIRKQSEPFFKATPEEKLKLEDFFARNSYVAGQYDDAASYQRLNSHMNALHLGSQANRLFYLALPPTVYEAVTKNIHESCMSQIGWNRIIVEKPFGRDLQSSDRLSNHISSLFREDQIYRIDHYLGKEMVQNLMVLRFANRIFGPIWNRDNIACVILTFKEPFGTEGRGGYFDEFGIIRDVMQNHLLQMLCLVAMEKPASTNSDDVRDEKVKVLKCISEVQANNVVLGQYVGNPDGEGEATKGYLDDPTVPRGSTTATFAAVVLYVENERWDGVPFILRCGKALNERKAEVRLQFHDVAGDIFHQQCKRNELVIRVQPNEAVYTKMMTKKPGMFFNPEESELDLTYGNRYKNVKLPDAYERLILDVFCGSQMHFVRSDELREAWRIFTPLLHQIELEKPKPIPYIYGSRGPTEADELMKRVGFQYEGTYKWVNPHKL
UniProt Q9H2C0: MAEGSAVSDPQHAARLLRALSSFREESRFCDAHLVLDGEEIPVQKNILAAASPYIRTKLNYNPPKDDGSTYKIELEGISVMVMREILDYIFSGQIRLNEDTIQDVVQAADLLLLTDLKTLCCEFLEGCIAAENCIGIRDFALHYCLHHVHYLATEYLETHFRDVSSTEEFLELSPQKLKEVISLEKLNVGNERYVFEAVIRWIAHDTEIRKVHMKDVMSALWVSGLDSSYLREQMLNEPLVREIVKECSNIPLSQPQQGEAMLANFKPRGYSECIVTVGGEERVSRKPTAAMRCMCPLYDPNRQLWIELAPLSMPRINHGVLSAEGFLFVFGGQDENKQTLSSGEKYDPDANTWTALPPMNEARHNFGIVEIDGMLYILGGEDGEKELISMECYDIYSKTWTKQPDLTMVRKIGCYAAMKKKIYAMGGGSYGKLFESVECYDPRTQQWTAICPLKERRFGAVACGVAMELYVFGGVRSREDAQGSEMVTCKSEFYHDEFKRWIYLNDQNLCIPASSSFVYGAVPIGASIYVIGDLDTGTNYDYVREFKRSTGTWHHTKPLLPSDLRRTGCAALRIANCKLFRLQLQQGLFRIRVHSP
UniProt Q7L5D6: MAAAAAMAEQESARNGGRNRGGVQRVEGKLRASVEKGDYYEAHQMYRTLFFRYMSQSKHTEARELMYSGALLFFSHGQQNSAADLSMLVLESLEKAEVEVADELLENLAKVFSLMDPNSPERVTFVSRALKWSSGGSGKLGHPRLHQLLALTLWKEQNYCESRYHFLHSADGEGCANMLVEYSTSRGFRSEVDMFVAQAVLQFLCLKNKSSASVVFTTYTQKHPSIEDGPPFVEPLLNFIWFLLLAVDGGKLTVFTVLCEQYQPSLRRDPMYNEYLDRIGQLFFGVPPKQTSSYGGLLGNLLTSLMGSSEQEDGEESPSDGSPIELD
UniProt Q9NZ52: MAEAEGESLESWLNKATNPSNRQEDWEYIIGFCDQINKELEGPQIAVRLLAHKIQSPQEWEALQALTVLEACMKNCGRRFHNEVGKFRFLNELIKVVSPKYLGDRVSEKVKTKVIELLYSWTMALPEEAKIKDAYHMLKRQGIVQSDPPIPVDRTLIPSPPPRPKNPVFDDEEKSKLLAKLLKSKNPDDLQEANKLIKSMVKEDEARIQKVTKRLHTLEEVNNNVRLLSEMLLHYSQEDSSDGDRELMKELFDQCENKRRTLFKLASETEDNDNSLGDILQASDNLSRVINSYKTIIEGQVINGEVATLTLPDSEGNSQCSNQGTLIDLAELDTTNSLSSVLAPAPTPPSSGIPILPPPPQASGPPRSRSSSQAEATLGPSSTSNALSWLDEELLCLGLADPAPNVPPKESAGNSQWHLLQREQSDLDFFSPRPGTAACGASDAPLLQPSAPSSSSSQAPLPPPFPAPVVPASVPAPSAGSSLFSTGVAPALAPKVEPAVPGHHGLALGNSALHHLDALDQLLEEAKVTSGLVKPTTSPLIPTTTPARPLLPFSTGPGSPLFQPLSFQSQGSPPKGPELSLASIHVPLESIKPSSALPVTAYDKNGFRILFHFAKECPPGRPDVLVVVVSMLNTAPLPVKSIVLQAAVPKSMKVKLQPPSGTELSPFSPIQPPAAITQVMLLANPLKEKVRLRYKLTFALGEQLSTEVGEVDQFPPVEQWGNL
UniProt Q96AE4: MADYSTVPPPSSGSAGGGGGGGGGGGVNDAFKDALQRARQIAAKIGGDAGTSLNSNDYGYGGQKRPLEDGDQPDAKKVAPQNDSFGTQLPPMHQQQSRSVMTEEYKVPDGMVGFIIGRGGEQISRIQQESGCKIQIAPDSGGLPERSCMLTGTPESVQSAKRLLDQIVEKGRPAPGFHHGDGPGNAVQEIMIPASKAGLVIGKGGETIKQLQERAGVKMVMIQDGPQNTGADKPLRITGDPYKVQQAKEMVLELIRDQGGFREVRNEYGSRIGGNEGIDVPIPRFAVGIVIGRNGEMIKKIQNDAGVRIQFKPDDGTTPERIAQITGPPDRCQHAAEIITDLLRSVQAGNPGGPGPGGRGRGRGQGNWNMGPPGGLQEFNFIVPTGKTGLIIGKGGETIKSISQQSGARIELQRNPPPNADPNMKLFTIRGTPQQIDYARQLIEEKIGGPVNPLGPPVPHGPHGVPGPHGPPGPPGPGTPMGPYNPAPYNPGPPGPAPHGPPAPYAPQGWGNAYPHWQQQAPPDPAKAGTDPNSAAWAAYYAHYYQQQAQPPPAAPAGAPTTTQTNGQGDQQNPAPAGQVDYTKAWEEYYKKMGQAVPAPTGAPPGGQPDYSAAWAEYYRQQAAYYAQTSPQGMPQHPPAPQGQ
UniProt Q96C23: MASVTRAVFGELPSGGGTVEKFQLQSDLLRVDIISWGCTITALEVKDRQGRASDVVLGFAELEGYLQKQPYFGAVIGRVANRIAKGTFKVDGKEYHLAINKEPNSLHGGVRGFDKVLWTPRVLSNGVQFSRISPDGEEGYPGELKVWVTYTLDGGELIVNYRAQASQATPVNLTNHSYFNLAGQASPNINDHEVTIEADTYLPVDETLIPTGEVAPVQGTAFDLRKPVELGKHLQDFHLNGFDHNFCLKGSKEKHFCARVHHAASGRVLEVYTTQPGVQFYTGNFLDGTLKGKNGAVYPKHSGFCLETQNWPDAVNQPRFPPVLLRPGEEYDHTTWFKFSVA
UniProt Q6NT46: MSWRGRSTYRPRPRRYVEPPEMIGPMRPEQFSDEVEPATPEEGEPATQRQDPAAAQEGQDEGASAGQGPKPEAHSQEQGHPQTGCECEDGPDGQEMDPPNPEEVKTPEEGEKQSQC
UniProt Q9UET6: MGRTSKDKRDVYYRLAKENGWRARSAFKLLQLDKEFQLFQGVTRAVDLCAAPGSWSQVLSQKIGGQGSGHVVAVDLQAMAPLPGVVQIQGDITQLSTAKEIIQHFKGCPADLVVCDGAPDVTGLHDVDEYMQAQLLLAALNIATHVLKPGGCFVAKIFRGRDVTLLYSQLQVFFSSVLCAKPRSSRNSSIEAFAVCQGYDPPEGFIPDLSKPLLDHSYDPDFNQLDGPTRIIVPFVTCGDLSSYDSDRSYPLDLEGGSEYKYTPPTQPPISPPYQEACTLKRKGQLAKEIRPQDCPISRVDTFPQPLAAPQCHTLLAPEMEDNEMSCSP
UniProt Q495W5: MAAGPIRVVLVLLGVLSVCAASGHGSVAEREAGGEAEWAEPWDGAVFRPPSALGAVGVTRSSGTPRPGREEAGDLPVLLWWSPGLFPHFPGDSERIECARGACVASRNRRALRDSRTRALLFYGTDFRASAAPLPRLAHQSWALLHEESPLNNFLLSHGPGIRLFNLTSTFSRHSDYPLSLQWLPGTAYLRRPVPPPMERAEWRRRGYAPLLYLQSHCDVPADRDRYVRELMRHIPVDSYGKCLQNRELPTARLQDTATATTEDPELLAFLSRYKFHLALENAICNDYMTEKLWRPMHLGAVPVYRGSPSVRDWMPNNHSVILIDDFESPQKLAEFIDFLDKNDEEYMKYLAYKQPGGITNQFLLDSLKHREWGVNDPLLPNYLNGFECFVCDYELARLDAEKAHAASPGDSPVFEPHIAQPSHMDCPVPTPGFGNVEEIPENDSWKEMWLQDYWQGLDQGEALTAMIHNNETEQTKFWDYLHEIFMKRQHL
UniProt P51116, whole entry, looked up: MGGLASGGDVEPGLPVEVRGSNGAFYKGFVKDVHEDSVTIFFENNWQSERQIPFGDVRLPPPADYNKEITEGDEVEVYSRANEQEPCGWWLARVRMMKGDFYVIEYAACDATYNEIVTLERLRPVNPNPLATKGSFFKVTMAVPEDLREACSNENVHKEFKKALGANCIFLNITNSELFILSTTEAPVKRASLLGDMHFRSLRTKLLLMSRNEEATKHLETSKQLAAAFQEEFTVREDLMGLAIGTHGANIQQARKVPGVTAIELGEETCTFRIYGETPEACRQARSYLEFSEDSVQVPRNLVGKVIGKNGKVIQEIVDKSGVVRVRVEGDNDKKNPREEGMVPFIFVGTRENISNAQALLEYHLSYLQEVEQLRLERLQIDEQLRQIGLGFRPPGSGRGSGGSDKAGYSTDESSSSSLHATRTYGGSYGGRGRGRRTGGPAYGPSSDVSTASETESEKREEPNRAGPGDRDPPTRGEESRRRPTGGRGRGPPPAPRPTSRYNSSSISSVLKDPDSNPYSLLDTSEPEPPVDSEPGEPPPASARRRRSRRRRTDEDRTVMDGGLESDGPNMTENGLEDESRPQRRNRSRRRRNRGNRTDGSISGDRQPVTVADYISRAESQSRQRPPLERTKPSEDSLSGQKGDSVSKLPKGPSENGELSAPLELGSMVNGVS

[1] = compound: C/C(=N\NC(=O)C1=CC(=CC=C1)S(=O)(=O)N2CCOCC2)/C3=C(C=CC(=C3)Cl)O
Outline: as §1

[2] = compound: C1=CC(=C(C=C1Cl)C2=NC3=NC=CN=C3C(=N2)NC4=CC=NC=C4)F
Outline: as §1

[3] = compound: C1=CC(=CC=C1C2=NC3=C(N2)C=C(C=C3)C(=O)N)OC4=CC=C(C=C4)Cl
Outline: as §1

[4] = compound: C1=CC2=C(C=CC(=C2)/C=C\3/C(=O)NC(=NCC4=CC=CS4)S3)N=C1
Outline: as §1

[5] = compound: C1=CC2=NC=CN=C2C=C1/C=C/3\C(=O)NC(=O)S3
Outline: as §1

[6] = compound: C1=CC=C(C=C1)C2=NC(=C(N2)C3=CC=NC=C3)C4=CC(=C(C=C4)Cl)O
Outline: as §1

[7] = compound: C1=CC=C2C(=C1)C3=NNC4=CC=CC(=C43)C2=O
Outline: as §1

[8] = compound: C1CCN(C1)C(=O)NC2=CC=CC(=C2)NC3=NC=C(C(=N3)NCCC4=CN=CN4)Br
Outline: as §1

[9] = compound: C1CN(CCC1(CC2=CC=C(C=C2)Cl)N)C3=NC=NC4=C3C=CN4
Outline: as §1

IRAK-1-4 Inhibitor I = compound: C1COCCN1CCN2C3=CC=CC=C3N=C2NC(=O)C4=CC(=CC=C4)[N+](=O)[O-] [IRAK-1-4 Inhibitor I]
Outline: as §1

ibrutinib = compound: C=CC(=O)N1CCC[C@@H](n2nc(-c3ccc(Oc4ccccc4)cc3)c3c(N)ncnc32)C1 [ibrutinib]
Outline: as §1

[10] = compound: CC(=O)c1cnc2ccc(-c3cc(Cl)c(O)c(Cl)c3)nc2c1N[C@H]1CC[C@H](CN(C)C)CC1
Outline: as §1

ralimetinib = compound: CC(C)(C)Cn1c(N)nc2ccc(-c3[nH]c(C(C)(C)C)nc3-c3ccc(F)cc3)nc21 [ralimetinib]
Outline: as §1

[11] = compound: CC(C)(O)CC(=O)NCCn1ccc2ncnc(Nc3ccc(Oc4cccc(C(F)(F)F)c4)c(Cl)c3)c21
Outline: as §1

[12] = compound: CC(C)C1=C2N=C(C=C(N2N=C1)NCC3=CC=CC=C3)NCCCCCCN
Outline: as §1

[13] = compound: CC(C)C[C@@H](C=O)NC(=O)[C@H](CC(C)C)NC(=O)[C@H](CC(C)C)NC(=O)OCc1ccccc1
Outline: as §1

pinometostat = compound: CC(C)N(C[C@H]1O[C@@H](n2cnc3c(N)ncnc32)[C@H](O)[C@@H]1O)[C@H]1C[C@@H](CCc2nc3cc(C(C)(C)C)ccc3[nH]2)C1 [pinometostat]
Outline: as §1

[14] = compound: CC1=C(C(CC(=O)N1)C2=CC=C(C=C2)C(F)(F)F)C(=O)NC3=C(C=C4C(=C3)C=NN4)F
Outline: as §1

[15] = compound: CC1=C(C2=C(C=C1)C(=O)C3=CC=CC=C3N2CCCN)C
Outline: as §1

Measured: log2 fold change

GC isoform 3 (UniProt P02774)
inactive: erlotinib -0.244 | [1] -0.078 | [2] 0.007 | [3] -0.014 | [4] 0 | [5] 0.053 | [6] 0.134 | [7] -0.134 | [8] 0.139 | [9] 0.323 | IRAK-1-4 Inhibitor I 0.22 | ibrutinib 0.165 | [10] 0.212 | ralimetinib 0.099 | [11] 0.389 | [12] 0.094 | [13] -0.135 | pinometostat -0.159 | [14] 0.027 | [15] -0.195

GGCX (UniProt P38435)
inactive: erlotinib 0.064 | [1] 0.009 | [2] 0.186 | [3] -0.011 | [4] 0.024 | [5] -0.067 | [6] 0.138 | [7] 0.112 | [8] 0.044 | [9] 0.008 | IRAK-1-4 Inhibitor I -0.025 | ibrutinib 0.009 | [10] -0.053 | ralimetinib 0.116 | [11] -0.313 | [12] -0.24 | [13] 0.002 | pinometostat 0.1 | [14] 0.004 | [15] -0.023

GARS1 (UniProt P41250)
inactive: erlotinib 0.003 | [1] -0.01 | [2] 0.045 | [3] -0.007 | [4] -0.001 | [5] 0 | [6] -0.028 | [7] -0.016 | [8] 0.012 | [9] 0.064 | IRAK-1-4 Inhibitor I 0.042 | ibrutinib -0.008 | [10] 0.012 | ralimetinib -0.075 | [11] 0.01 | [12] 0.044 | [13] -0.038 | pinometostat -0.046 | [14] -0.003 | [15] 0.005

GDI2 (UniProt P50395)
inactive: erlotinib -0.069 | [1] -0.014 | [2] 0.042 | [3] 0.019 | [4] -0.029 | [5] -0.001 | [6] -0.01 | [7] 0.025 | [8] 0.012 | [9] 0.018 | IRAK-1-4 Inhibitor I 0.046 | ibrutinib 0.008 | [10] 0.002 | ralimetinib 0.035 | [11] 0.002 | [12] 0.092 | [13] -0.008 | pinometostat -0.016 | [14] 0.025 | [15] -0.008

Quoted at random: 2 entries already listed, in no set order.
GARS1 (UniProt P41250)
inactive: erlotinib 0.003 | [1] -0.01 | [2] 0.045 | [3] -0.007 | [4] -0.001 | [5] 0 | [6] -0.028 | [7] -0.016 | [8] 0.012 | [9] 0.064 | IRAK-1-4 Inhibitor I 0.042 | ibrutinib -0.008 | [10] 0.012 | ralimetinib -0.075 | [11] 0.01 | [12] 0.044 | [13] -0.038 | pinometostat -0.046 | [14] -0.003 | [15] 0.005

GGCX (UniProt P38435)
inactive: erlotinib 0.064 | [1] 0.009 | [2] 0.186 | [3] -0.011 | [4] 0.024 | [5] -0.067 | [6] 0.138 | [7] 0.112 | [8] 0.044 | [9] 0.008 | IRAK-1-4 Inhibitor I -0.025 | ibrutinib 0.009 | [10] -0.053 | ralimetinib 0.116 | [11] -0.313 | [12] -0.24 | [13] 0.002 | pinometostat 0.1 | [14] 0.004 | [15] -0.023

The list continues:

G6PD isoform 2 (UniProt P11413)
inactive: erlotinib -0.029 | [1] 0.025 | [2] 0.058 | [3] -0.006 | [4] 0.004 | [5] -0.017 | [6] 0.033 | [7] 0.006 | [8] -0.031 | [9] 0.015 | IRAK-1-4 Inhibitor I 0.053 | ibrutinib -0.019 | [10] -0.029 | ralimetinib -0.019 | [11] -0.033 | [12] 0.012 | [13] 0.005 | pinometostat -0.004 | [14] -0.016 | [15] 0.019

GAN (UniProt Q9H2C0)
inactive: erlotinib 0.012 | [1] 0.058 | [2] 0.079 | [3] 0.006 | [4] 0.075 | [5] -0.002 | [6] 0.047 | [7] -0.013 | [8] -0.004 | [9] 0.027 | IRAK-1-4 Inhibitor I 0.057 | ibrutinib 0.024 | [10] -0.06 | ralimetinib -0.032 | [11] 0.038 | [12] 0.025 | [13] -0.027 | pinometostat -0.014 | [14] 0.01 | [15] 0.057

GET4 (UniProt Q7L5D6)
inactive: erlotinib -0.02 | [1] 0.043 | [2] -0.064 | [3] 0.024 | [4] -0.016 | [5] 0.036 | [6] 0.006 | [7] -0.076 | [8] -0.018 | [9] -0.089 | IRAK-1-4 Inhibitor I 0.016 | ibrutinib -0.025 | [10] -0.034 | ralimetinib 0.022 | [11] 0.006 | [12] -0.12 | [13] 0.074 | pinometostat 0.05 | [14] -0.038 | [15] 0.004

GGA3 (UniProt Q9NZ52)
inactive: erlotinib 0.045 | [1] 0.026 | [2] 0.014 | [3] 0.093 | [4] 0.021 | [5] 0.037 | [6] -0.002 | [7] 0.006 | [8] -0.059 | [9] -0.04 | IRAK-1-4 Inhibitor I -0.022 | ibrutinib -0.099 | [10] -0.018 | ralimetinib 0.035 | [11] -0.024 | [12] 0.049 | [13] -0.049 | pinometostat 0.029 | [14] -0.022 | [15] 0.092

FUBP1 (UniProt Q96AE4)
inactive: erlotinib -0.029 | [1] -0.172 | [2] 0.042 | [3] 0.116 | [4] -0.072 | [5] 0.144 | [6] 0.088 | [7] 0.063 | [8] 0.004 | [9] 0.136 | IRAK-1-4 Inhibitor I 0.014 | ibrutinib -0.035 | [10] 0.065 | ralimetinib -0.049 | [11] -0.031 | [12] -0.002 | [13] 0.041 | pinometostat -0.049 | [14] -0.031 | [15] -0.015

GALM (UniProt Q96C23)
inactive: erlotinib 0.066 | [1] 0.041 | [2] 0.07 | [3] 0.026 | [4] 0.035 | [5] -0.017 | [6] -0.018 | [7] -0.016 | [8] -0.019 | [9] 0.044 | IRAK-1-4 Inhibitor I 0.047 | ibrutinib 0.261 | [10] -0.08 | ralimetinib -0.051 | [11] -0.066 | [12] -0.005 | [13] 0.025 | pinometostat -0.008 | [14] 0.002 | [15] 0.027

GAGE2A (UniProt Q6NT46)
inactive: erlotinib -0.03 | [1] -0.173 | [2] 0.05 | [3] 0.026 | [4] 0.051 | [5] 0.02 | [6] -0.071 | [7] -0.065 | [8] 0.032 | [9] -0.082 | IRAK-1-4 Inhibitor I -0.009 | ibrutinib 0.031 | [10] 0.01 | ralimetinib -0.068 | [11] -0.045 | [12] 0.017 | [13] 0.061 | pinometostat -0.028 | [14] 0.035 | [15] -0.032

GFPT1 (UniProt Q06210)
inactive: erlotinib 0.027 | [1] 0.056 | [2] 0.031 | [3] 0.023 | [4] 0.012 | [5] -0.064 | [6] 0.032 | [7] 0.003 | [8] -0.022 | [9] 0.018 | IRAK-1-4 Inhibitor I 0.012 | ibrutinib 0.035 | [10] 0.003 | ralimetinib -0.039 | [11] -0.049 | [12] -0.059 | [13] -0.062 | pinometostat -0.025 | [14] -0.006 | [15] -0.031

GAMT (UniProt Q14353)
inactive: erlotinib -0.092 | [1] -0.013 | [2] 0.041 | [3] -0.004 | [4] 0 | [5] 0.024 | [6] 0.049 | [7] -0.073 | [8] -0.105 | [9] -0.017 | IRAK-1-4 Inhibitor I 0 | ibrutinib 0.014 | [10] 0.007 | ralimetinib 0.078 | [11] -0.074 | [12] -0.063 | [13] -0.016 | pinometostat -0.028 | [14] -0.029 | [15] -0.04

FTSJ1 (UniProt Q9UET6)
inactive: erlotinib 0.032 | [1] 0.032 | [2] -0.059 | [3] 0.127 | [4] -0.018 | [5] 0.006 | [6] 0.036 | [7] -0.003 | [8] 0.055 | [9] -0.093 | IRAK-1-4 Inhibitor I 0.006 | ibrutinib -0.004 | [10] 0.064 | ralimetinib 0.028 | [11] -0.031 | [12] -0.043 | [13] -0.05 | pinometostat 0.076 | [14] -0.008 | [15] 0.009

FUT11 (UniProt Q495W5)
inactive: erlotinib 0.018 | [1] 0.1 | [2] 0.009 | [3] 0.04 | [4] -0.175 | [5] -0.022 | [6] 0.008 | [7] -0.047 | [8] -0.132 | [9] 0.097 | IRAK-1-4 Inhibitor I 0.049 | ibrutinib 0.045 | [10] -0.036 | ralimetinib -0.049 | [11] -0.015 | [12] 0.368 | [13] 0.037 | pinometostat 0.001 | [14] -0.002 | [15] -0.245

FXR2 (UniProt P51116)
inactive: erlotinib -0.074 | [1] -0.131 | [2] -0.203 | [3] -0.036 | [4] 0.185 | [5] -0.047 | [6] -0.11 | [7] -0.029 | [8] -0.067 | [9] 0.032 | IRAK-1-4 Inhibitor I -0.327 | ibrutinib 0.044 | [10] 0.017 | ralimetinib 0.3 | [11] 0.079 | [12] -0.052 | [13] 0.246 | pinometostat 0.343 | [14] -0.062 | [15] -0.024

Source: the supplement of paper PMC10849652
